{
  "source": "patent US20190225941A1",
  "about": "“MODULATION OF FUNCTION OF IMMUNE EFFECTOR CELLS” (OSLO UNIVERSITETSSYKEHUS HF, priority 2016, published 2019)",
  "test_system": "primary NK cells",
  "assay": "Confocal imaging of primary NK cells exposed to PIKfyve inhibitors (LAMP-1 / granzyme B staining)",
  "assay_type": "cell-based, human",
  "settings": "1 μM overnight, LAMP-1 staining, FIG. 10",
  "description": "Sorted NK cells were prepared for confocal microscopy using fixation/permeabilization (BD Bioscience Cytofix/Cytoperm) prior to intracellular staining with mouse anti-human granzyme B-A647 (GB11), rabbit anti-human pericentrin (Ab4448) followed by Donkey anti-Rabbit IgG Alexa555 and donkey anti-mouse-A568. After staining, the fixed cells were adhered to glass cover slips using Cell Tak (Corning) and mounted using Pro-long Gold Antifade with DAPI. The cells were examined with a Zeiss LSM 710 confocal microscope (Carl Zeiss Microlmaging GmbH) equipped with an Ar-Laser Multiline (458/488/514 nm), a DPSS-561 10 (561 nm), a Laser diode 405-30 CW (405 nm), and a HeNe-laser (633 nm). The objective used was a Zeiss plan-Apochromat 63×NA/1.4 oil DICII. Image processing and analysis were performed with basic software ZEN 2011 (Carl Zeiss Microlmaging GmbH) and Imaris 7.7.2 (Bitplane AG). Confocal z-stacks were deconvolved using Huygens Essential 14.06 (Scientific Volume Imaging b.v.), and visualized with Imaris.\nFor the PIKfyve inhibition experiments, fresh NK cells were left either untreated or cultured in RPMI/10% FCS, supplemented with 1 μM Vacuolin-1, YM201636 or Apilimod at 37° C. in 5% CO2 overnight. Cells were surface-stained with anti-human HLA-ABC antibody (W6/32, BioLegend) prior to settlement on CelITak-coated slides for 20 minutes, followed by fixation with 4% paraformaldehyde. […]",
  "data": [
    {"molecule": "Nc1ccc(C(=O)Nc2cccc(-c3nc(N4CCOCC4)c4oc5ncccc5c4n3)c2)cn1", "note": "[YM201636]", "values": [
      {"measurement": "secretory lysosome size", "value": "increase in secretory lysosome size"}
    ]}
  ]
}
